Assay: Direct influence of CCCP and Nigericin on emission spectrum, polarization and lifetime of Rh123 in suspension
Settings: Rh123 0.5 μg/ml suspension, no cells; CCCP 5 μM or Nigericin 5 μg/ml
Method: A suspension of Rh123 at a concentration of 0.5 μg/ml was prepared. The suspension was divided into three aliquots, each containing a volume of 1 ml. To the first part was added 2.5 μl of PBS. To the second part was added 2.5 μl CCCP at a concentration of 2 mM, so that a final concentration of 5 μM CCCP was reached. To the third part was added 2.5 μl of Nigericin, at a concentration of 2 mg/ml, so that a final concentration of 5 μg/ml Nigericin was reached.
In the first stage, the emission spectrum of the suspension was obtained, using CARY ECLIPSE. The suspensions were excited with 480 nm light and the fluorescence was measured between 500-600 nm, while the slits (emission and excitation) were 2.5 nm.
The direct influence of CCCP and/or Nigericin were tested on the same suspensions of Rh123, measuring the lifetimes in contrast to the control.

Row | SMILES | P (polarization of Rh123 in suspension) | τ (lifetime of Rh123 in suspension)
1 | N#CC(C#N)=NNc1cccc(Cl)c1 [CCCP] | 0.053 ± 0.001 | 4.241 ± 0.002 nsec
2 | CO[C@@H]1C[C@@H](C[C@H]2CC[C@H](C)[C@H]([C@@H](C)C(=O)O)O2)O[C@]2(O[C@](C)([C@H]3CC[C@@](C)([C@@H]4O[C@@H]([C@H]5O[C@@](O)(CO)[C@H](C)C[C@@H]5C)C[C@@H]4C)O3)C[C@H]2C)[C@@H]1C [Nigericin] | 0.056 ± 0.002 | 4.242 ± 0.004 nsec

From US20100274500A1, “METHOD AND SYSTEM FOR MEASURING MEMBRANE POTENTIAL BASED ON FLUORESCENCE POLARIZATION” (Seng Enterprises Ltd., priority 2006, published 2010)
